The list does not hold the whole screen: it gathers tests that were run many times, whatever their T/C, doses with no T/C, and many T/C values between a quarter and a half above the control. Further doses and runs are listed elsewhere. T/C: endpoint of the treated group in % of that of the vehicle group. Some entries give survivors of the animals treated and no T/C: the source files T/C as zero there, which appears to mark a toxic dose or a test without result, not a measured value. Some doses without a T/C left all or most animals alive at the check, yet need not have been tolerated: the source hardly ever lists a survival T/C far under the control, and the zero likely stands for such cases as well. Survivors were counted at the toxicity check, usually on the fifth day, unless a day is given; later deaths do not show. Schedules are NCI's codes, read here as Q, the interval in days (D) or hours (H), X, the number of doses. Signs of the kind (2×) say how often a value occurs here. Some entries hold several experiments; the results are listed from low to high. For survival time, this PubChem deposit counts one and a half times the control or more as active, and values a quarter to a half above the control carry no call in these data; other NCI protocols may use other cut-offs.
Test system: BDF1 mice, B16 melanoma ip, median survival T/C
Experiment: NCI In Vivo Anticancer Drug Screen. Data for tumor model B16 Melanoma (intraperitoneal) in B6D2F1 (BDF1) mice
Settings: T/C endpoint: median survival time, higher T/C = longer survival
Protocol: The antitumor activity of compounds was measured in mice bearing transplantable tumors. Survival or tumor size were measured and the results are expressed as the measurement made in the treated group (T) divided by the measurement made in the vehicle treated control group (C). The tumor model used in this assay is B16 Melanoma (intraperitoneal) in B6D2F1 (BDF1) mice

[1] = dose: 0.05 mg/kg/injection, schedule: Q01DX009 (ip), vehicle: other
[2] = dose: 200.0 mg/kg/injection, schedule: Q01DX009 (ip), vehicle: saline with Tween-80
[3] = dose: 200.0 mg/kg/injection, schedule: Q01DX009 (ip), vehicle: Klucel (hydroxypropylcellulose) (HPC)
[4] = dose: 400.0 mg/kg/injection, schedule: Q01DX009 (ip), vehicle: Klucel (hydroxypropylcellulose) (HPC)

In the case of N=[N+]=CC(=O)CCC(NC(=O)C(CCC(=O)C=[N+]=N)NC(=O)CCC(N)C(=O)O)C(=O)O (configuration not stated), the T/C [1] is reported as 93 and 106 % of control (2×), the survivor count [1] is reported as 6 of 6 and the survivor count (dose: 0.1 mg/kg/injection, schedule: Q01DX009 (ip), vehicle: Klucel (hydroxypropylcellulose) (HPC)) is reported as 10 of 10. For the same molecule, the T/C (dose: 0.1 mg/kg/injection, schedule: Q01DX009 (ip), vehicle: other) was 88, 100, 106 % of control (2×), the survivor count (dose: 0.2 mg/kg/injection, schedule: Q01DX009 (ip), vehicle: other) was 6 of 6 and the T/C (dose: 0.2 mg/kg/injection, schedule: Q01DX009 (ip), vehicle: saline) was 125 % of control. The survivor count (dose: 0.4 mg/kg/injection, schedule: Q01DX009 (ip), vehicle: other) was 6 of 6, the survivor count (dose: 0.4 mg/kg/injection, schedule: Q01DX009 (ip), vehicle: saline) was 6 of 6 and the survivor count (dose: 0.5 mg/kg/injection, schedule: Q01DX009 (ip), vehicle: other) was 5 of 6 and 6 of 6. The survivor count (dose: 0.6 mg/kg/injection, schedule: Q01DX009 (ip), vehicle: other) was 6 of 6, the survivor count (dose: 0.8 mg/kg/injection, schedule: Q01DX009 (ip), vehicle: other) was 6 of 6 and the survivor count (dose: 20.0 mg/kg/injection, schedule: Q04DX003 (ip), vehicle: other) was 6 of 6. For the same molecule, the survivor count (dose: 40.0 mg/kg/injection, schedule: Q04DX003 (ip), vehicle: other) was 6 of 6.

Cc1c([C@H](C)[C@@H]2NC[C@@H](C)C[C@H]2O)ccc2c1C[C@H]1[C@H]2CC=C2C[C@@H](O)CC[C@@]21C was tested, and the survivor count (dose: 6.0 mg/kg/injection, schedule: Q01DX009 (ip), vehicle: saline) was 6 of 6 and the survivor count (dose: 12.0 mg/kg/injection, schedule: Q01DX009 (ip), vehicle: saline) was 0 of 6.

In the case of Cc1cc2[nH]c(=O)[nH]c2cc1C, the survivor count [2] is reported as 10 of 10.

For CC(C)N(CCCO)C(C)C, the survivor count [2] was 6 of 10.

In the case of CCOC(=O)CNC(=O)CCCCSc1ncnc2nc[nH]c12, the survivor count (dose: 20.0 mg/kg/injection, schedule: Q01DX009 (ip), vehicle: Klucel (hydroxypropylcellulose) (HPC)) is reported as 10 of 10, the survivor count (dose: 40.0 mg/kg/injection, schedule: Q01DX009 (ip), vehicle: Klucel (hydroxypropylcellulose) (HPC)) is reported as 10 of 10 and the survivor count (dose: 80.0 mg/kg/injection, schedule: Q01DX009 (ip), vehicle: Klucel (hydroxypropylcellulose) (HPC)) is reported as 10 of 10. The survivor count (dose: 160.0 mg/kg/injection, schedule: Q01DX009 (ip), vehicle: Klucel (hydroxypropylcellulose) (HPC)) was 10 of 10, the survivor count (dose: 320.0 mg/kg/injection, schedule: Q01DX009 (ip), vehicle: Klucel (hydroxypropylcellulose) (HPC)) was 10 of 10 and the survivor count (dose: 640.0 mg/kg/injection, schedule: Q01DX009 (ip), vehicle: Klucel (hydroxypropylcellulose) (HPC)) was 10 of 10.

In the case of CC1=C(C)C(=O)O[C@@H]([C@](C)(O)[C@]2(O)CC[C@@]3(O)[C@@H]4C[C@H]5O[C@]56[C@@H](O)C=CC(=O)[C@]6(C)[C@H]4CC[C@]23C)C1, the T/C (dose: 2.0 mg/kg/injection, schedule: Q01DX009 (ip), vehicle: saline + alcohol) is reported as 133 % of control, the T/C (dose: 4.0 mg/kg/injection, schedule: Q01DX005 (ip), vehicle: saline + alcohol) is reported as 129 % of control and the T/C (dose: 4.0 mg/kg/injection, schedule: Q01DX009 (ip), vehicle: saline + alcohol) is reported as 136 % of control. For the same molecule, the T/C (dose: 8.0 mg/kg/injection, schedule: Q01DX005 (ip), vehicle: saline + alcohol) was 135 % of control, the survivor count (dose: 8.0 mg/kg/injection, schedule: Q01DX009 (ip), vehicle: saline + alcohol) was 10 of 10 and the T/C (dose: 16.0 mg/kg/injection, schedule: Q01DX001 (ip), vehicle: saline + alcohol) was 129 % of control. The survivor count (dose: 16.0 mg/kg/injection, schedule: Q01DX009 (ip), vehicle: saline + alcohol) was 10 of 10, the survivor count (dose: 32.0 mg/kg/injection, schedule: Q01DX005 (ip), vehicle: saline + alcohol) was 9 of 10 and the survivor count (dose: 32.0 mg/kg/injection, schedule: Q01DX009 (ip), vehicle: saline + alcohol) was 10 of 10. The survivor count (dose: 64.0 mg/kg/injection, schedule: Q01DX001 (ip), vehicle: saline + alcohol) was 6 of 10.

With C=C(C)C12OC3(c4ccccc4)OC1C1C4OC4(CO)C(O)C4(O)C(=O)C(C)=CC4C1(O3)C(C)C2OC(=O)/C=C/C=C/c1ccccc1 (configuration not stated) the survivor count (dose: 200.0 micrograms/kg/injection, schedule: Q01DX009 (ip), vehicle: alcohol) was 9 of 10 and the survivor count (dose: 400.0 micrograms/kg/injection, schedule: Q01DX009 (ip), vehicle: alcohol) was 4 of 10.

O=C1NC(=O)C2C3C=CC(C12)C1C2C(=O)NC(=O)C2C31 (configuration not stated) was tested, and the T/C (dose: 25.0 mg/kg/injection, schedule: Q01DX009 (ip), vehicle: suspension in saline) was 126 % of control, the T/C (dose: 50.0 mg/kg/injection, schedule: Q01DX009 (ip), vehicle: suspension in saline) was 131 % of control and the survivor count (dose: 100.0 mg/kg/injection, schedule: Q01DX009 (ip), vehicle: suspension in saline) was 10 of 10. The survivor count (dose: 200.0 mg/kg/injection, schedule: Q01DX009 (ip), vehicle: suspension in saline) was 6 of 10.

With O=c1[nH]/c(=C\c2ccc3c(c2)OCO3)c(=O)[nH]/c1=C\c1ccc2c(c1)OCO2 the survivor count [3] was 10 of 10 and the survivor count [4] was 10 of 10.

COc1ccccc1NC(=O)Nc1cc(C)ccc1C was tested, and the survivor count (dose: 100.0 mg/kg/injection, schedule: Q01DX009 (ip), vehicle: Klucel (hydroxypropylcellulose) (HPC)) was 10 of 10, the survivor count [3] was 10 of 10 and the survivor count [4] was 10 of 10.

With Oc1c(Cl)cc(Cl)cc1/C=N/NC(=S)Nc1cc(C(F)(F)F)cc(C(F)(F)F)c1 the survivor count (dose: 6.25 mg/kg/injection, schedule: Q01DX009 (ip), vehicle: olive oil, sesame oil, peanut oil) was 10 of 10 (2×), the survivor count (dose: 12.5 mg/kg/injection, schedule: Q01DX009 (ip), vehicle: olive oil, sesame oil, peanut oil) was 10 of 10 (2×) and the survivor count (dose: 25.0 mg/kg/injection, schedule: Q01DX009 (ip), vehicle: olive oil, sesame oil, peanut oil) was 10 of 10 (2×). The survivor count (dose: 50.0 mg/kg/injection, schedule: Q01DX009 (ip), vehicle: olive oil, sesame oil, peanut oil) was 9 of 10, the survivor count (dose: 100.0 mg/kg/injection, schedule: Q01DX009 (ip), vehicle: olive oil, sesame oil, peanut oil) was 10 of 10 (2×) and the survivor count (dose: 200.0 mg/kg/injection, schedule: Q01DX009 (ip), vehicle: olive oil, sesame oil, peanut oil) was 8 of 10.

For CC(=O)CC(=O)Nc1ccc(-c2ccc(NC(=O)CC(C)=O)c(Cl)c2)cc1Cl, the survivor count [4] was 10 of 10.

O=C(Cl)C1(Br)CC2c3ccccc3C1([N+](=O)[O-])c1ccccc12 (configuration not stated) was tested, and the survivor count [4] was 10 of 10.

CC[CH2][Sn]([Cl])([Cl])[CH2]CC.Oc1ccccc1C=NCCN=Cc1ccccc1O was tested, and the survivor count (dose: 10.0 mg/kg/injection, schedule: Q01DX009 (ip), vehicle: gum acacia) was 3 of 10 and 9 of 10.

With Cc1ccc(NC(=O)CCl)cc1C the survivor count (dose: 50.0 mg/kg/injection, schedule: Q01DX009 (ip), vehicle: saline with Tween-80) was 10 of 10.

In the case of Cc1c2cc(Cl)c3ccccc3c2c[n+]2ccccc12, the survivor count (dose: 100.0 mg/kg/injection, schedule: Q01DX009 (ip), vehicle: saline with Tween-80) is reported as 8 of 10.

CC1(C)COCN1COCCOCN1COCC1(C)C was tested, and the survivor count (dose: 200.0 mg/kg/injection, schedule: Q01DX009 (ip), vehicle: saline) was 9 of 10.

OCCN1CCN(CC/C=C2\c3ccccc3Sc3ccc(Cl)cc32)CC1 was tested, and the T/C (dose: 1.0 mg/kg/injection, schedule: Q01DX009 (ip), vehicle: saline) was 127 % of control, the T/C (dose: 2.0 mg/kg/injection, schedule: Q01DX009 (ip), vehicle: saline) was 128 % of control and the T/C (dose: 4.0 mg/kg/injection, schedule: Q01DX009 (ip), vehicle: saline) was 128 % of control. The survivor count (dose: 8.0 mg/kg/injection, schedule: Q01DX009 (ip), vehicle: saline) was 9 of 10 and the survivor count (dose: 16.0 mg/kg/injection, schedule: Q01DX009 (ip), vehicle: saline) was 10 of 10.

In the case of Cc1ccc(CNc2ccc(Cl)cc2)cc1, the survivor count [3] is reported as 5 of 10.

— PubChem BioAssay AID192 (DTP/NCI, 2004)
